Measurements: the supplement of paper PMC4635364
This is one part of the list. Single values are uncertain here, since repeats match poorly.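 Cells: ReNCell VM human fetal ventral-midbrain neural progenitors, differentiated mitogen-free. Blinded raters compared doublecortin-stained (early neurons) or tyrosine hydroxylase-stained (dopaminergic neurons) images with untreated wells, where 0 means no change. After repeats and both raters were averaged, compounds scoring 2 or above became hits for retesting.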

The compounds below were run on ReNCell VM (assay: dopaminergic neuron differentiation score (TH+ cell fraction vs untreated, manual image score) (score (0 to 3)); higher = more TH+ dopaminergic neuron differentiation). Settings: library: Spectrum; 2 uM; 4 weeks; BDNF 10 ng/ml + GDNF 10 ng/ml.

Dopaminergic neuron differentiation score, inactive:
NS(=O)(=O)c1cc(C2(O)NC(=O)c3ccccc32)ccc1Cl (stereo not drawn) 0
CC(C)C1=CC2=CC[C@@H]3[C@](C)(CCC[C@@]3(C)C(=O)O)[C@H]2CC1 0
O=C(/C=C/c1ccc(O)c(O)c1)OCCc1ccccc1 0
C[C@]12CC[C@@H]3c4ccc(OS(=O)(=O)O)cc4CC[C@H]3[C@@H]1CCC2=O 0
CC1=C(/C=C/C(C)=C/C=C/C(C)=C/C=C/C=C(C)/C=C/C=C(C)/C=C/C2=C(C)CCCC2(C)C)C(C)(C)CCC1 [beta-CAROTENE] 0
CCCNCC(O)COc1ccccc1C(=O)CCc1ccccc1 (stereo not drawn) 0
Cc1cc(NC(=O)C2=C(O)c3ccccc3S(=O)(=O)N2C)no1 0
Nc1ccc(S(=O)(=O)c2ccc(N)cc2)cc1 0
CSCC[C@H](NC(=O)[C@H](Cc1c[nH]c2ccccc12)NC(=O)CCNC(=O)OC(C)(C)C)C(=O)N[C@@H](CC(=O)O)C(=O)N[C@@H](Cc1ccccc1)C(N)=O 0
CC(=O)Oc1cccc(C(=O)O)c1OC(C)=O 0
CCCc1nc2c(C)cc(-c3nc4ccccc4n3C)cc2n1Cc1ccc(-c2ccccc2C(=O)O)cc1 0
CC1(C)[C@@H](OC(=O)CCC(=O)O)CC[C@]2(C)[C@H]3C(=O)C=C4[C@@H]5C[C@@](C)(C(=O)O)CC[C@]5(C)CC[C@@]4(C)[C@]3(C)CC[C@@H]12 0
CCN[C@H]1CN(CCCOC)S(=O)(=O)c2sc(S(N)(=O)=O)cc21 0

Some of these compounds in order of formula weight, ascending.
Dopaminergic neuron differentiation score, inactive:
NS(=O)(=O)c1cc(C2(O)NC(=O)c3ccccc32)ccc1Cl (stereo not drawn) 0
CCCNCC(O)COc1ccccc1C(=O)CCc1ccccc1 (stereo not drawn) 0
CSCC[C@H](NC(=O)[C@H](Cc1c[nH]c2ccccc12)NC(=O)CCNC(=O)OC(C)(C)C)C(=O)N[C@@H](CC(=O)O)C(=O)N[C@@H](Cc1ccccc1)C(N)=O 0
